Like-named read-outs stand apart in the source and are kept apart here.
System: microbial inhibition test (Premi®Test)
Details: read after 3-4 hours
[1] = Bovine urine without drug residues, 1 mg/100 μl
[2] = Pig urine without drug residues, 1 mg/100 μl

CC(=O)[O-].CC(=O)[O-].[Ca+2] [Ca(CH3COO)2, Calcium Acetate]
Amount of false positive results (%) [1]: 20%
Amount of false positive results (%) (Bovine urine without drug residues, 2 mg/100 μl): 4%
Amount of false positive results (%) [2]: 0%
Amount of false positive results (%) (Pig urine without drug residues, 2 mg/100 μl): 12%

[Ca+2].[Cl-].[Cl-] [CaCl2, Calcium Chloride]
Amount of false positive results (%) [1]: 12%
Amount of false positive results (%) [2]: 11%
